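Primary screen of methionyl-tRNA synthetase; the read-out is not stated. Target: Methionyl-tRNA synthetase (putative), Leishmania donovani (UniProt E9BF75). The test concentration is not given. Values are per cent inhibition. Size under these conditions: about 68,000 compounds, about 24 of them at 50% or above in at least one test.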

Amino acid sequences for entries named in this document (tags omitted).
UniProt E9BF75, entry or part of it: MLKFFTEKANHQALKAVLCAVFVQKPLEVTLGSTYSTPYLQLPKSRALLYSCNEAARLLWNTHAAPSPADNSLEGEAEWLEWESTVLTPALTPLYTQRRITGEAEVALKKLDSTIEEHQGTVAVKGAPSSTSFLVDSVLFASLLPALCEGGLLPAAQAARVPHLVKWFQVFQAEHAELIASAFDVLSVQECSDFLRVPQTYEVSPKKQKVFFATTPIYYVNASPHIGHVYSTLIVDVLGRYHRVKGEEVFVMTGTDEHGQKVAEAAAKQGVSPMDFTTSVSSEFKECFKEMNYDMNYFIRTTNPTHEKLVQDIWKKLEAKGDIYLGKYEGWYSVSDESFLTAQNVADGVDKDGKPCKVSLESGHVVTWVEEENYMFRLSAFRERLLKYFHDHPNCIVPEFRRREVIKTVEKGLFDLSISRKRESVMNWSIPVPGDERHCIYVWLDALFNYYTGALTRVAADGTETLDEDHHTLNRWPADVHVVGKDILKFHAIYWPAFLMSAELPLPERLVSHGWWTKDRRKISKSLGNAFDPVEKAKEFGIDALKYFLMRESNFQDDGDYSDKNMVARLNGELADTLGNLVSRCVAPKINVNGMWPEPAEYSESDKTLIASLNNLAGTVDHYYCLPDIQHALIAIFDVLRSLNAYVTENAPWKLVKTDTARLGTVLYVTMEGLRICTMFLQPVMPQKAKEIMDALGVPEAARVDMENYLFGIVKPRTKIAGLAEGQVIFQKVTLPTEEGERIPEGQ

All values are in %. How 0% and 100% were set is not recorded. Most values in the screen are low, and negative values occur. This is an unselected part of the compounds tested.

| # | structure | Inhibition |
|---|---|---|
| 1 | `O=C(NCC1(c2cccs2)CCCCC1)N1CCOC(CO)C1` (configuration not stated) | 11.11% |
| 2 | `COc1cc(CSc2nnc(N)n2C2CC2)ccc1SC` | 20.6% |
| 3 | `Cc1ncc(CNC(=O)Nc2cc(C(F)(F)F)c[nH]c2=O)s1` | 10.62% |
| 4 | `Cc1csc(CN2CCC[C@]3(C[C@@H](Oc4ccccn4)CO3)C2)n1` | 15.34% |
| 5 | `O=C(c1scc2c1OCCO2)N1CCOC(CCc2ccccc2)C1` (configuration not stated) | 3.922% |
| 6 | `CN(C)Cc1ccc(C2CCCCN2C(=O)c2cc(=O)[nH]c(=O)[nH]2)cc1` (configuration not stated) | -1.648% |
| 7 | `CN(CC1(CO)CCCC1)c1nc2c(c(=O)[nH]1)Cc1ccccc1OC2` | 17.93% |
| 8 | `CCCNC(=O)CN1CCOC(CC)C1` (configuration not stated) | 7.419% |
| 9 | `O=C(c1ccc2c(c1)CCCC2)N1CCN(c2cnccn2)CC1` | 15.21% |
| 10 | `O=C(Nc1cccnc1)c1noc2c1CN(S(=O)(=O)C1CC1)CC2` | 6.667% |
| 11 | `O=C(CCc1nc2cccnc2[nH]1)Nc1ccc2c(c1)NC(=O)CO2` | 5.263% |
| 12 | `COc1cccc(CN2CC(O)CN(C(=O)C3CCC3)CC2=O)c1OC` (configuration not stated) | 13.42% |
| 13 | `CN(C)C(=O)CN(C)C(=O)c1cccn1CCc1ccccc1` | 14.09% |
| 14 | `Cc1n[nH]c2c1C(c1ccc3c(c1)OCO3)SCC(=O)N2` (configuration not stated) | 1.143% |
| 15 | `CN(Cc1nc(N)c2ccccc2n1)CC1CCCN1c1cccnn1` (configuration not stated) | 16.67% |
| 16 | `CCOCC(O)CN1CCN(C(=O)c2ccc(N(C)C)nn2)CC1` (configuration not stated) | 11.45% |
| 17 | `CC/C=C(/C)C(=O)NCc1ccnc(OC2CCOCC2)c1` | 14.64% |
| 18 | `Fc1ccc(C2CCCN2Cc2nnnn2C2CC2)cc1` (configuration not stated) | 8.215% |
| 19 | `Cc1oncc1C(=O)N1CC[C@H]2[C@@H]1CCC(=O)N2CC1CC1` | 1.093% |
| 20 | `O=C(Nc1nncs1)NC1CCOc2ccccc21` (configuration not stated) | 9.5% |
| 21 | `O=C(c1cnn2c(-c3ccco3)ccnc12)N1CCCCCC1` | 17.75% |
| 22 | `COc1ccc(CN2CC[C@H]3[C@H]2CC(=O)N3Cc2cccc(C)n2)cc1` | 2.244% |
| 23 | `CCCN(CC1CC1)C(=O)Cn1ccccc1=O` | 7.617% |
| 24 | `CC(C)c1cc(NC(CO)CO)n2nccc2n1` | 5.694% |
| 25 | `CN(C)CCN1CCO[C@H]2CCN(C(=O)c3cccs3)CC[C@@H]21` | 7.971% |
| 26 | `CN(C)C(=O)CN1C[C@@H]2CC[C@H](C1)N(C/C=C/c1ccc(F)cc1)C2` | 11.28% |
| 27 | `O=C1O[C@@H]2CN(Cc3cccnc3)C[C@@H]2N1CCCN1CCOCC1` | 9.091% |
| 28 | `O=C(C1CCCO1)N1CCC(c2nc(-c3ccccc3)n[nH]2)CC1` (configuration not stated) | 14.4% |
| 29 | `CCNC(=O)N1CCCC(c2noc(CC)n2)C1` (configuration not stated) | 20.14% |
| 30 | `CCn1cc(NC(=O)C2CCN(CC(=O)NC(C)(C)CC)CC2)cn1` | 13.69% |
| 31 | `O=S1(=O)COCCN1Cc1cccc(Cl)c1` | 12.68% |
| 32 | `Cc1nc(C(=O)N2CCc3[nH]nc(Nc4ccccc4)c3C2)co1` | 10.31% |
| 33 | `O=C(Nc1ccc(Cl)cn1)C1CCN(CCc2ccccn2)CC1` | 14.49% |
| 34 | `CC(C)Nc1nc(N2CCOCC2)nc2c1CN(CC(=O)N(C)C)CC2` | 4.53% |
| 35 | `Cc1nn(C)c2c(=O)n(Cc3ccccc3)nnc12` | 4.774% |
| 36 | `CCNc1ncc(C2CC(=O)Nc3c2cnn3Cc2ccncc2)cn1` (configuration not stated) | 4.032% |
| 37 | `Cc1ccn(-c2ccnc(N3CCN(c4ncccn4)CC3)n2)n1` | 19.83% |
| 38 | `CC(c1ccccc1)N1Cc2nc(N(C)C)ncc2C1=O` (configuration not stated) | 18.61% |
| 39 | `Cc1ccc(C(=O)NCCS(=O)(=O)Cc2ccccc2)c(C)c1` | -4.735% |
| 40 | `Cc1cc(Oc2ccccc2)nc(C2CCN(CCO)CC2)n1` | 12.19% |
| 41 | `NC(=O)CN1CCC(NC(=O)COc2ccc(Cl)c(Cl)c2)CC1` | 22.4% |
| 42 | `CN1CCOC(CNCc2coc(-c3ccccc3Cl)n2)C1` (configuration not stated) | 13.33% |
| 43 | `CN(C)CC1CN(Cc2coc(-c3ccccc3)n2)CCO1` (configuration not stated) | 23.78% |
| 44 | `Cn1cc(-c2nc(C(=O)N3CCCC3Cn3cccn3)cs2)cn1` (configuration not stated) | 14.25% |
| 45 | `Cc1cnn(CCC(=O)N2CCN(C(=O)C(C)C)[C@@H]3CS(=O)(=O)C[C@@H]32)c1` | 10.23% |
| 46 | `COc1ccc(CN(C)CC2(O)CCNC2)cc1` (configuration not stated) | 10.59% |
| 47 | `CNS(=O)(=O)CCNC(=O)c1coc(COc2ccc(F)cc2)n1` | 16.85% |
| 48 | `Cc1cccc(C)c1OCC(C)Nc1nc(N)nc2c1CCNC2` (configuration not stated) | 8.527% |
| 49 | `CN(C)CCCNC(=O)c1ccc(N(C)S(C)(=O)=O)cc1Cl` | 13.35% |
| 50 | `Cc1cnc(C(=O)N2CCc3c(nc(-c4ccncc4)[nH]c3=O)C2)cn1` | 6.452% |
| 51 | `CCC(CC)C(=O)NCCC(=O)N1CCN(c2ccccn2)CC1` | 15.21% |
| 52 | `CC(C)NS(=O)(=O)c1cc(C(=O)O)cc(-n2cc3c(n2)CCC3)c1` | 17.71% |
| 53 | `Cc1ccccc1N1CCN(C(=O)CSc2ccncc2)CC1=O` | 7.56% |
| 54 | `CN(C)CCCn1ccnc1C1CCN(C(=O)Cc2cccnc2)CC1` | 3.147% |
| 55 | `COCCNC(=O)[C@H]1CN(Cc2csc(C)n2)C[C@H]2OCC[C@@H]12` | 10% |
| 56 | `Cc1ncc(C(=O)N2CCCC(Cc3nccs3)C2)cn1` (configuration not stated) | 6.553% |
| 57 | `COCC(NC(=O)c1ccc[nH]1)c1cccc(C(F)(F)F)c1` (configuration not stated) | 5.419% |
| 58 | `COc1ccc(OCc2nccc(-c3cc(C(=O)O)ccn3)n2)cc1` | 15.27% |
| 59 | `O=C(Nc1cccs1)N1CC(c2nc(C3CC3)no2)C1` | 8.633% |
| 60 | `CN1CCN(S(=O)(=O)c2ccc(Sc3nccn3C)nc2)CC1` | 3.432% |
| 61 | `CC(C)c1nc2cc(NC(=O)Cn3ccccc3=O)ccc2o1` | 7.216% |
| 62 | `COc1cccc(Cc2nnc(SC3CCOC3=O)o2)c1` (configuration not stated) | 6.829% |
| 63 | `COc1ccc2[nH]cc(C(=O)CNc3nc(C)cs3)c2c1` | 11.86% |
| 64 | `O=C([C@@H]1C[C@@H]2CCN(C3CCOCC3)C[C@@H]2O1)N1CCCC1` | 16.24% |
| 65 | `COc1cc(N2CCCC(c3nccn3Cc3ccncc3)C2)ncn1` (configuration not stated) | 12.1% |
| 66 | `COc1ccccc1C(=O)NC[C@H]1COCc2nc3c(C)cccc3n21` | 13.22% |
| 67 | `CNC(=O)c1ccc2c(c1)C1(CCN(CCOC)CC1)C(=O)N2` | 18.78% |
| 68 | `O=C(COc1cccc2c1CCC2=O)NCCc1cccs1` | 4.244% |

Source: ChEMBL document CHEMBL3988442, “University of Dundee, Small-Polar-MMV Screening Library” (2021).